The values that follow are results of earlier work, collected in patent publication US5753516A, “Screening method for ligands of the EBI-1 receptor” (priority 1995, dated 1998).

The data set concerns human peripheral blood T cells. Particulars: read-out: Kd, single type naloxone binding site; Madden et al., 1987; cited from earlier work.

In the case of `C=CCN1CC[C@]23c4c5ccc(O)c4O[C@H]2C(=O)CC[C@@]3(O)[C@H]1C5` [Naloxone], the Kd – broadly, the concentration at which binding is half-saturated – was 56 nM.
